{"source": "patent US20180008569A1", "about": "“PROSTAGLANDIN TRANSPORTER INHIBITORS FOR INHIBITING OVULATION” (TEL HASHOMER MEDICAL RESEARCH INFRASTRUCTURE AND SERVICES …, priority 2015, published 2018)", "system": "PGT transcripts in MGCs", "assay": "PGT transcripts (qPCR) in cultured FSH-pretreated human mural granulosa cells", "settings": "pretreatment 10 μM for 1 hour, then hCG 1U/ml 24 hours", "method": "FSH-pretreated MGCs were then exposed to vehicle (PBS) or AREG for 24 hours. PGT was quantified by qPCR and normalized to/3-actin expression. Data represent the mean±SEM of three independent experiments.", "note": "For at least one compound, name, drawing or mass did not settle the structure.", "data": [{"smiles": "O=c1cc(N2CCOCC2)oc2c(-c3ccccc3)cccc12", "note": "[LY294002]", "values": [{"measurement": "hCG-induced upregulation of PGT expression", "result": "without effect"}]}]}
